Out of some 400,000 compounds screened, about 5,500 (1.4%) were called active. The inconclusive results got no clear call from the source; some entries with a clear call stand among them for comparison. Calls come from the whole dose curve; as a rule, active = well fitted cell-killing curve with a large enough effect; inconclusive = small, poorly fitted or top-dose-only effect, or effect the other way; inactive = flat fitted curve, though single readings scatter. Potencies of inconclusive entries are doubtful fits and often do not repeat.
Experiment: qHTS assay for MDR1-selective chemotherapeutics: Primary screen using the parental adenocarcinoma cell KB-3-1; note: nearly all actives have a fitted effect of over 60% in size
Details: KB-3-1 viability, CellTiter-Glo ATP luminescence, 72 h; activity change, negative = cytotoxic: at 46.1 µM (top of the series)
Procedure, shortened: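 Using CellTiter-Glo luminescence, growth of non-resistant KB-3-1 adenocarcinoma cells is assessed 72 h after pin-tool compound addition at 37 °C. Normalized responses across the concentration series yield fitted curves.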
% is set by controls: 0 for no effect and ±100 for the full control effect; potency is the fitted concentration of half-maximal effect.

Structure (SMILES)	Potency	activity change, negative = cytotoxic
CCOC(=O)c1cc(-c2ccc(C)cc2)n(CCC(=O)N2CCN(c3ccccn3)CC2)c1C	inconclusive: 18.4 µM [cytotoxic, single point]	
CCOC(=O)[C@H]1[C@H]2COc3ccc(Cl)cc3[C@@H]2N2C(=O)c3cc(Cl)ccc3NC(=O)[C@@]12C	inconclusive: 0.58 µM [cytotoxic, single point]	
O=C1C=C(C#Cc2ccccc2)C[C@@H](c2ccc(F)cc2)C1	inconclusive: 20.6 µM [cytotoxic, single point]	
Cc1cccc(-n2cnc(C(=O)NNC(=S)Nc3ccc(Cl)cc3)c2)n1	active: 13 µM	
COc1ccc(C2Nc3ccccc3C(=O)N2Cc2ccco2)cc1OC (configuration not stated)	inconclusive: 0.0082 µM [rising, full curve]	
COc1ccc(-n2c(=O)c3ccc(C(=O)NCc4ccc(C)cc4)cc3n(CC(=O)Nc3ccc(F)cc3)c2=O)cc1	inactive	
C[C@@H]1COc2cc(N3CCC[C@H]3CO)ccc2S(=O)(=O)N1	inactive	
N#Cc1ccccc1Cn1cc(C#N)c2ccccc21	inconclusive: 29.1 µM [cytotoxic, single point]	
Cc1cc(CN2CCCC(N3CCc4ccccc4C3)C2)cc(C)c1O (configuration not stated)	inactive	
COc1ccc(/C(C)=N/NC(=O)c2ccc(CSc3cccc4cccnc34)cc2)cc1OC	inconclusive: 29.1 µM [cytotoxic, single point]	
Cc1cc(S(=O)(=O)Nc2ccc(C(=O)N3CC(C)OC(C)C3)cc2)ccc1F (configuration not stated)	inconclusive: 0.0065 µM [cytotoxic, full curve, poor fit]	
O=C(NCc1cccnc1)C1CCN(Cc2cc3ccccc3n2Cc2cccc(Cl)c2)CC1	inactive	
O=C(NC1CCCCCCC1)c1cnccn1	inactive	
CCn1c(C)cc(O)cc1=O	inconclusive: 2.06 µM [cytotoxic, full curve]	
COc1ccc(C(=O)CNC2=NCCC2)cc1	inconclusive: 4.61 µM [rising, partial curve]	
CC(=O)Nc1cccc(-c2ccnc3c2CC(C)(C(=O)NCc2cccs2)O3)c1 (configuration not stated)	active: 3.26 µM	
COc1ccc(/C=N\NC(=O)c2ccccc2F)cc1COc1ccc(F)cc1F	active: 5.17 µM	
C=CCC(C(=O)NC(C)c1ccccc1)C(=O)NC(C)c1ccccc1 (configuration not stated)	inactive	
CC(=O)C1(O)C(C)CC2C3CC=C4CC(O)CCC4(C)C3CCC21C (configuration not stated)	inactive	
CC(Sc1ccc(Cl)cc1)C(=O)Nc1ccccc1-c1ccccc1 (configuration not stated)	inactive	
C[N+]1(CC(=O)c2ccc(I)cc2)CCCc2ccccc21 (configuration not stated)	inconclusive: 29.1 µM [cytotoxic, single point]	
S=C1SC2(CCCCCC2)NC2=C1CCCCC2	inconclusive: 16.4 µM [cytotoxic, single point]	
O=C1CC(SC(=Nc2ccccc2)Nc2ccccc2)C(=O)N1c1ccc(Cl)c(Cl)c1 (configuration not stated)	inconclusive: 29.1 µM [cytotoxic, single point]	
COc1cccc(-c2nc(CS(=O)(=O)CC(=O)NC3CCC(C)CC3)c(C)o2)c1 (configuration not stated)	inconclusive: 18.4 µM [cytotoxic, single point]	

Reprinted at random: 4 entries already listed.
Structure (SMILES)	Potency	activity change, negative = cytotoxic
COc1ccc(C(=O)CNC2=NCCC2)cc1	inconclusive: 4.61 µM [rising, partial curve]	
CC(=O)C1(O)C(C)CC2C3CC=C4CC(O)CCC4(C)C3CCC21C (configuration not stated)	inactive	
C[C@@H]1COc2cc(N3CCC[C@H]3CO)ccc2S(=O)(=O)N1	inactive	
O=C(NC1CCCCCCC1)c1cnccn1	inactive	

Following part

Structure (SMILES)	Potency	activity change, negative = cytotoxic
CN(C)c1cc(O)c(C(=S)Nc2ccccc2)c(N(C)C)c1	inconclusive: 29.1 µM [cytotoxic, single point]	
CCC(Oc1ccccc1)C(=O)Nc1ccc2oc(-c3ccc(OC)cc3)nc2c1 (configuration not stated)	inactive	
O=C(CNC(=O)C1CCCCC1)OCC(=O)c1ccccc1	inconclusive: 18.4 µM [rising, partial curve, poor fit]	
CC(=O)Nc1oc(-c2cccc3ccccc23)nc1C#N		inconclusive: -0.261%
O=C(/C=C/c1ccc(Br)cc1)c1ccco1	inconclusive: 29.1 µM [cytotoxic, single point]	
N#C/C(=C/C1=C(N2CCOCC2)C(=C/c2ccccc2)/CC1)C(=O)Nc1ccccc1F	inconclusive: 23.1 µM [cytotoxic, single point]	
Cc1nc(N2CCN(c3ccccn3)CC2)c2c(C)c(C(=O)Nc3ccc(F)cc3Cl)sc2n1	inconclusive: 18.4 µM [cytotoxic, single point]	
Clc1cccc(/C=N/Nc2nc(Cl)nc3ccccc23)c1	inconclusive: 29.1 µM [cytotoxic, single point]	
O=C(c1cc(-c2ccccc2)n[nH]1)N1CCc2c([nH]c3ccccc23)C1c1ccccn1 (configuration not stated)	inconclusive: 29.1 µM [cytotoxic, single point]	
Cc1cc(C)c(OCC(=O)Nc2cccc(NC(=O)c3ccco3)c2)c(Br)c1	inactive	
CN(Cc1ccc(Cl)c(Cl)c1)C(=O)c1ccccc1SCC(=O)N1CCCC1	inconclusive: 20.6 µM [cytotoxic, single point]	
Cc1ccnc(N2C3CCC2CC(O)(c2ccccc2)C3)n1 (configuration not stated)	inactive	
Cc1ccc(-c2c(C)cc3oc(=O)cc(-c4ccccc4)c3c2C)cc1	inactive	
O=C(NCc1ccc(F)c(F)c1)C1Cc2c(-c3ccc4c(c3)OCO4)ccnc2O1 (configuration not stated)	active: 8.2 µM	
Cc1cc(NC(=O)COC(=O)C2CC(=O)N(c3ccc(Br)cc3)C2)no1 (configuration not stated)	inconclusive: 0.0052 µM [rising, full curve, poor fit]	
O=C(O)CC(c1cccc2ccccc12)N1Cc2ccccc2C1=O (configuration not stated)	inconclusive: 0.411 µM [rising, full curve, poor fit]	
CCN(CC)C(=O)c1nc(-c2cccc3ccccc23)no1	inactive	
CC(C)(C)c1ccc2c(c1)OC(C(=O)N/N=C\c1ccncc1)CO2 (configuration not stated)	inconclusive: 0.92 µM [rising, partial curve, poor fit]	
CNC(=O)OCc1nc(SSC(C)(C)C)n(C)c1COC(=O)NC	inconclusive: 29.1 µM [cytotoxic, single point]	
COC(=O)c1ccc2c(CCO)c[nH]c2c1	inconclusive: 2.31 µM [rising, full curve]	
Cc1c2c([n+]3n1CCC3)CC(C)(C)CC2=O	inactive	
CN(C)c1ccc(C=c2c3cc([N+](=O)[O-])ccc3n3c2cc(-c2ccccc2)[n+]3C)cc1	active: 5.17 µM	
COc1cc2nc(N3CCCN(C)CC3)nc(NC3CCN(C)C3)c2cc1OC (configuration not stated)	inconclusive: 23.1 µM [cytotoxic, single point]	
Cc1ccc(-c2noc(CNC(=O)c3ccc4c(c3)OCO4)n2)cc1	inactive	

Structure (SMILES)	Potency	activity change, negative = cytotoxic
CCOC(=O)c1c(NC(=O)c2nn(CC)cc2Br)c(C#N)nn1-c1ccccc1	inactive	
O=C(CSc1nnc(COc2ccccc2)o1)NCCc1ccccc1	inconclusive: 29.1 µM [cytotoxic, single point]	
S=C(Nc1ccccc1)N1CCN(c2ccc(N3CCOCC3)nn2)CC1	inconclusive: 29.1 µM [rising, single point]	
Cc1nnc(SCC(=O)Nc2nc(-c3ccc(F)cc3)cs2)[nH]c1=O	inactive	
Cc1nn(-c2ccccc2)c(Cl)c1/C=C(\C#N)C(=O)NC(C)C	inconclusive: 25.9 µM [cytotoxic, single point]	
CC(C)(C)NC(=O)C1CC1(c1ccccc1)c1ccccc1 (configuration not stated)	inconclusive: 29.1 µM [cytotoxic, single point]	
O=C(N/N=C/c1cc([N+](=O)[O-])ccc1O)c1cc(-c2ccccc2)nc2ccccc12	inconclusive: 8.2 µM [cytotoxic, partial curve]	
CC(C)OC(=O)CSc1nc(N2CCOCC2)c2c(c1C#N)CC(C)(C)OC2	inactive	
COc1ccccc1CNC(=O)CNC(=O)c1ccc(Br)o1	inconclusive: 10.3 µM [rising, partial curve]	
COc1cccc(-c2cc(=O)c3cc(NC(=O)c4ccc(Cl)cc4)ccc3[nH]2)c1	active: 1.3 µM	
Cn1c(CCn2ccccc2=O)nc2cc(NC(=O)COc3ccccc3)ccc21	inactive	
CCOCCCN(C(=O)CCC(=O)Nc1cc(C)on1)C(C(=O)NC(C)(C)CC)c1cccc(OC)c1OC (configuration not stated)	inactive	
CCCCCCCCN1C(=O)[C@H](CC(=O)NCc2cccc(C(F)(F)F)c2)C[C@@]2(C(=O)OC)CC(C)(C)CC=C12	inconclusive: 20.6 µM [cytotoxic, single point]	
Cc1nc2ncnn2c(Nc2ccc3c(c2)OCO3)c1Cc1ccccc1	inconclusive: 20.6 µM [cytotoxic, partial curve]	
CC(Oc1cccc(F)c1)c1ccnc2nc(/N=C/N(C)C)nn12 (configuration not stated)	inconclusive: 29.1 µM [cytotoxic, single point]	
CC(NCc1ccc(OCc2ccc(Cl)cc2)cc1)C(O)c1ccccc1 (configuration not stated)	inconclusive: 23.1 µM [cytotoxic, single point]	
Cc1ccc(S(=O)(=O)c2ccsc2NC(=O)c2ccccc2)cc1	inconclusive: 18.4 µM [cytotoxic, single point]	
O=C(Nc1ccc(OC(F)F)c(Cl)c1)c1cccc(OC(F)F)c1	inconclusive: 29.1 µM [cytotoxic, single point]	
CC1CCN(C(=O)c2[nH]cnc2C(=O)Nc2nccs2)CC1	inactive	
Cc1ccc(OCC(=O)N2CCC3(CC2)CC(=O)c2ccccc2O3)cc1	inactive	
CCc1ccc2oc(-c3cc(N)ccc3O)nc2c1	inconclusive: 18.4 µM [cytotoxic, single point]	
CC(=O)c1ccc(-c2ccc([C@H]3[C@@H]4C=CCC[C@@]4(C)C(=O)N3Cc3ccccc3)c(F)c2)cc1	inconclusive: 29.1 µM [cytotoxic, single point]	
Cc1nc2ccccc2n1CC(=O)NC1CCCCCC1	inconclusive: 6.51 µM [cytotoxic, partial curve]	
CCc1cccc(CC)c1-n1c(SCC(=O)N2CCc3ccccc3C2)nnc1-c1cccnc1	inconclusive: 14.6 µM [cytotoxic, partial curve, poor fit]	
